Some of the results follow. Shown are side measurements of this screen, not its main read-out; they come without a call. Most of these compounds were active or inconclusive in the main read-out, so they are no random draw. The note in brackets gives the kind of curve behind each potency; many fits are weak.
Assay: qHTS Assay for Lipid Storage Modulators in Drosophila S3 Cells;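 for cell number change: cells counted by Cell Tracker Red CMTPX staining in the red channel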
Conditions: BODIPY lipid droplet fluorescence, 18-24 h; for cell number change: measured here: cell count max response, cells fed with added oleic acid
Summary of the method: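 Drosophila S3 cells got compounds at several concentrations plus oleic acid (400 uM solution). Laser-scanning cytometry with 488 nm excitation read lipid droplets at 500-530 nm and cells at 575-640 nm. Percent activity was relative to 20 uM Triacsin C.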

[1] = measured here: lipid fluorescence (Fed channel) AC50, cells fed with added oleic acid
[2] = measured here: cell number channel AC50, cells fed with added oleic acid

Q: For `COc1ccc2nc(SCC(C)=O)c(C#N)cc2c1`, which AC50 [1] is on record?
A: 731 nM [rising, full curve]

Q: What does the source list for `CCc1ccccc1NC(=O)C1=CC(c2ccc(OC)c(OC)c2)=NS(=O)(=O)N1C`?
A: cell number change: 8.36%; AC50 [1]: 5.17 nM [rising, full curve, poor fit]

Q: Which cell number change does the source give for `CCN1CCN(Cc2c(O)ccc3c2O/C(=C\C=C\c2ccccc2)C3=O)CC1` here?
A: -6.19%

Q: What about the AC50 [1] of the same compound?
A: 184 nM [rising, full curve, poor fit]

Q: With `CCOc1ccc(CN(C)C(=O)CNC(=O)C2CCCCC2)cc1OC` as the compound, how does the cell number change read?
A: 12.1%

Q: And the AC50 [1]?
A: 5.8 nM [rising, full curve, poor fit]

Q: For `O=C(NCCc1ccccc1)c1nc(CS(=O)(=O)c2ccc(Cl)cc2)no1`, which cell number change is on record?
A: 2.42%

Q: Which results are given for `O=C1c2ccccc2C(=O)N1c1ncc(Cc2ccc(Cl)cc2)s1`?
A: cell number change: -1.11%; AC50 [1]: 3260 nM [rising, single point]

Q: Which cell number change does the source give for `CCCCN(Cc1ccccc1)S(=O)(=O)c1cc(Br)cc2c1N(C(C)=O)C(C)C2` (stereo not given) here?
A: -6.51%

Q: What about the AC50 [1] of the same compound?
A: 1300 nM [rising, full curve]

Q: What does the source list for `COc1ccccc1-c1ccc(=O)n(CC(=O)NCc2ccco2)n1`?
A: cell number change: -27.6%; AC50 [2]: 2910 nM [falling, full curve, poor fit]; AC50 [1]: 29100 nM [falling, single point]

Q: For `Cc1cccc(Cn2cccc2/C=C2/C(=N)N3C=CSC3=NC2=O)c1`, which cell number change is on record?
A: -1.81%

Q: What about the AC50 [1] of the same compound?
A: 461 nM [rising, full curve, poor fit]

Q: Which results are given for `C=CCN1C(=O)C2(OCCCO2)c2cccc(C)c21`?
A: cell number change: -8.4%; AC50 [1]: 23100 nM [rising, single point]

Q: For `CCC1(c2ccccc2)NC(=O)N(CC(=O)Nc2ccccc2C(=O)N2CCCCC2)C1=O` (stereo not given), which cell number change is on record?
A: 7.41%

Q: And the AC50 [2]?
A: 651 nM [falling, single point]

Q: And the AC50 [1]?
A: 18400 nM [rising, partial curve, poor fit]

Q: What does the source list for `Cn1c(Oc2ccc3c(c2)OCO3)nc2c1c(=O)n(Cc1ccccc1)c(=O)n2C`?
A: cell number change: -0.414%; AC50 [1]: 29100 nM [rising, single point]

Q: For `CCc1ccc(N(C(=O)c2csnn2)C(C(=O)NC2CCCCC2)c2ccncc2)cc1` (stereo not given), which cell number change is on record?
A: -3.85%

Q: What about the AC50 [1] of the same compound?
A: 116 nM [rising, single point]

Q: For `CC1=Nc2ccccc2N=C(NC(=O)CSc2nnnn2-c2ccccc2)C1c1ccccc1` (stereo not given), which cell number change is on record?
A: 15.5%

Q: And the AC50 [2]?
A: 103 nM [rising, full curve, poor fit]

Q: And the AC50 [1]?
A: 326 nM [rising, partial curve, poor fit]

Q: For `O=C(CN1C(=O)COc2ccc(S(=O)(=O)N3CCCCC3)cc21)NCc1ccc(F)cc1`, which cell number change is on record?
A: 14.2%

Q: And the AC50 [2]?
A: 10.3 nM [rising, full curve, poor fit]

Q: With `CC(C)(C)C1CCC(=NNC(=S)NCc2ccccc2)CC1` (stereo not given) as the compound, how does the cell number change read?
A: -19.4%

Q: What about the AC50 [1] of the same compound?
A: 6510 nM [falling, single point]

Q: What does the source list for `COc1cc2c(cc1OC)-c1cc(NCc3ccccn3)nc(=O)n1CC2`?
A: cell number change: 42.4%; AC50 [2]: 11600 nM [rising, partial curve, poor fit]; AC50 [1]: 20600 nM [rising, partial curve]

Q: With `COc1cc(C(=O)NCc2nnc(SCC(=O)N3CCC(C)CC3)o2)cc(OC)c1OC` as the compound, how does the cell number change read?
A: 5.65%

Q: What about the AC50 [1] of the same compound?
A: 58 nM [falling, full curve, poor fit]

Q: For `COc1cc(/C=C2/SC(=S)N(CC(=O)O)C2=O)ccc1OC(=O)c1cccs1`, which cell number change is on record?
A: -5.51%

Q: What does the source list for `Cc1ccc(N2C(S)=C(C#N)C(=O)NC2c2cccs2)cc1` (stereo not given)?
A: cell number change: -16.7%; AC50 [2]: 651 nM [rising, partial curve, poor fit]; AC50 [1]: 103 nM [falling, full curve, poor fit]

Q: With `CN1CCN(C2CC(=O)N(c3ccc4c(c3)OCCO4)C2=O)CC1` (stereo not given) as the compound, how does the cell number change read?
A: 43.2%

Q: And the AC50 [2]?
A: 13000 nM [rising, partial curve]

Q: What about the AC50 [1] of the same compound?
A: 3660 nM [falling, full curve]

Q: Which cell number change does the source give for `COc1ccccc1-n1c(=S)[nH]c2c(sc(=S)n2-c2ccccc2)c1=O` here?
A: -79.4%

Q: For `O=C(Nc1ccccc1)c1cc(S(=O)(=O)N2CCSCC2)ccc1Cl`, which cell number change is on record?
A: 3.97%

Q: What about the AC50 [1] of the same compound?
A: 14.6 nM [rising, full curve, poor fit]

Q: Which results are given for `CC(NC(=O)C1CCN(C(=O)Nc2ccccc2)CC1)c1ccccc1Cl` (stereo not given)?
A: cell number change: -5.01%; AC50 [1]: 651 nM [falling, single point]

Q: What does the source list for `CNc1c([N+](=O)[O-])cnn1-c1ccccc1Cl`?
A: cell number change: -23.1%; AC50 [1]: 29100 nM [falling, single point]

Q: For `CN(C)c1nc(Oc2ccc(=O)[nH]n2)nc(N2CCCCC2)n1`, which cell number change is on record?
A: 0.638%

Q: And the AC50 [1]?
A: 20600 nM [rising, single point]

Q: Which cell number change does the source give for `CC(C)c1ccc(CN2CCN(C(=O)CSc3nnnn3C3CC3)CC2)cc1` here?
A: -17.1%

Q: What about the AC50 [1] of the same compound?
A: 20600 nM [falling, partial curve, poor fit]

Q: For `Cc1nn(-c2ccccc2)cc1C(c1c(N)[nH]c(=S)[nH]c1=O)c1c(N)[nH]c(=S)[nH]c1=O`, which cell number change is on record?
A: -1.82%

Q: And the AC50 [1]?
A: 3260 nM [rising, partial curve]

Q: For `COc1ccccc1N1CCN(C(=O)c2c(-c3ccccc3)noc2C)CC1`, which cell number change is on record?
A: -26%

Q: With `Cn1nnnc1SCC(=O)NC1CCCc2ccccc21` (stereo not given) as the compound, how does the cell number change read?
A: -16.6%

Q: What about the AC50 [1] of the same compound?
A: 29100 nM [falling, single point]

Q: Which results are given for `COc1ccc(CNC(=O)C2CC(C)=CCC2C(=O)O)cc1` (stereo not given)?
A: cell number change: 30.7%; AC50 [2]: 4.61 nM [rising, full curve, poor fit]

Q: What does the source list for `O=S(=O)(/C=C/c1ccccc1)N1CCN(c2nc(-c3cccnc3)nc3ccccc23)CC1`?
A: cell number change: 19.5%; AC50 [1]: 164 nM [rising, full curve, poor fit]

Q: For `Cc1cc(C)n(CC(=O)NNC(=O)CCCOc2ccc(Cl)c(C)c2)n1`, which cell number change is on record?
A: 10.3%

Q: What does the source list for `O=C(N1CCN(c2ccccc2)CC1)C1(c2cccs2)CCOCC1`?
A: cell number change: 14.4%; AC50 [1]: 92 nM [rising, full curve]

Q: With `CCOC(=O)CC(NC(=O)c1cccs1)c1ccc(C)cc1` (stereo not given) as the compound, how does the cell number change read?
A: 7.21%

Q: With `O=S(=O)(Nc1cccnc1Cl)c1ccc(F)cc1` as the compound, how does the cell number change read?
A: -16.2%

Q: For `CCOc1ccc(S(=O)(=O)N2CCCC(C(=O)N3CCOCC3)C2)cc1C` (stereo not given), which AC50 [1] is on record?
A: 5800 nM [falling, single point]

Q: For `COc1cccc(CNC(=O)c2ccccc2-c2ccccc2)c1`, which cell number change is on record?
A: -9.73%

Q: Which cell number change does the source give for `COc1cc(/C=N/NC(=O)c2cccc3ccccc23)cc(OC)c1O` here?
A: -10.4%

Q: What about the AC50 [2] of the same compound?
A: 461 nM [rising, single point]

Q: And the AC50 [1]?
A: 29100 nM [rising, single point]
